Earlier results on 1 compound are cited in article PMC8707461, “In Vitro and In Vivo Inhibition of MATE1 by Tyrosine Kinase Inhibitors” (Pharmaceutics, 2021).

For orientation: IC50 means the concentration that gives 50% inhibition.

Structures are written as SMILES.

The data set relates to MATE1. As to conditions: publicly available information; ref FDA/EMA or supplement refs 1-8; cited from earlier work.

Regarding `CNC(=O)c1ccccc1Sc1ccc2c(/C=C/c3ccccn3)n[nH]c2c1` [Axitinib], the concentration for half-maximal inhibition (IC50) is below 10 µM.
